PubChem BioAssay AID1259254 | NCATS, 2017
The deposit covers about 59,000 reagents; below is an unselected part. About 1,550 of all reagents (2.6%) count as active. 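G2 share is only a proxy for re-replication; each gene was hit by three separate siRNAs, and active genes were retested.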 Entries without a mark were called inactive. Reagents against one gene are numbered here. Not all columns of the deposit are shown. Not given: the amount of reagent.

Assay: 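Genome-wide screen for genes that prevent DNA re-replication in cancer cells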 (primary screen)
Cell system: human HCT116 colorectal cancer cells
Reagent: single siRNA against human genes
Time to read-out: 3 days
Detection: 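Nuclei stained with Hoechst and imaged; cell-cycle phase assigned by DNA content; G2 share scaled per plate, non-targeting siRNA 0%, GMNN siRNA 100%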
Scale: G2 robust z-score: higher = more G2 cells, more excess DNA replication
Rule for the call: 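An siRNA counts as active if its G2 robust z-score lies at least 5 MADs above the screen median; here such calls match roughly 38% of GMNN control or more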

Against PPP2R2D #1, the entry reads G2 robust z-score 1.28. Against PPP2R2D #2 the deposit lists G2 robust z-score -0.285. After knock-down of PPP2R2D #3, the record shows G2 robust z-score 1.11. For PTPN4 #1, the values are G2 robust z-score 6.17 (active). PTPN4 #2 showed G2 robust z-score 0.189. After knock-down of PTPN4 #3 the results were G2 robust z-score 0.619.

RTKN2 #1 gave G2 robust z-score -0.224. For RTKN2 #2 the deposit lists G2 robust z-score -0.968. Against RTKN2 #3 the deposit lists G2 robust z-score -0.294. ADAM2 #1 scored G2 robust z-score -0.475. Silencing of ADAM2 #2 resulted in: G2 robust z-score -0.348. After knock-down of ADAM2 #3 the results were G2 robust z-score 0.388.

Already shown: entries from further up.
PPP2R2D #3: G2 robust z-score = 1.11
PTPN4 #1: G2 robust z-score = 6.17 (active)
PTPN4 #2: G2 robust z-score = 0.189
PTPN4 #3: G2 robust z-score = 0.619

Additional entries follow:
Knock-down of F2RL2 #1 came out at: G2 robust z-score 1.82. For F2RL2 #2, the entry reads G2 robust z-score -0.301. Against F2RL2 #3, the entry reads G2 robust z-score -0.815. Silencing of ZNF786 #1 resulted in: G2 robust z-score 0.0878. With knock-down of ZNF786 #2 the results were G2 robust z-score 0.348. ZNF786 #3 gave G2 robust z-score 0.589.

With knock-down of RPL3 #1, the record shows G2 robust z-score 5.08 (active). After knock-down of RPL3 #2, the screen gave G2 robust z-score 2.3. Against RPL3 #3, the entry reads G2 robust z-score 1.9. For FAM47B #1 the deposit lists G2 robust z-score 3.67. FAM47B #2 showed G2 robust z-score 0.285. For FAM47B #3 the deposit lists G2 robust z-score -0.881.
